In patent US20210087281A1 (AGOMAB THERAPEUTICS, published 2021):
No constants are given. Whether binding was seen depends on the method and setting. Some binding calls cover weakened binding; strength is not graded here.

Protein sequences, listed by entry. Tags and fused reporters are not part of them. Lines headed by an entry give the natural chain unless they say otherwise; changes in a name come on top. Residues count along the entry.
UniProt P08581: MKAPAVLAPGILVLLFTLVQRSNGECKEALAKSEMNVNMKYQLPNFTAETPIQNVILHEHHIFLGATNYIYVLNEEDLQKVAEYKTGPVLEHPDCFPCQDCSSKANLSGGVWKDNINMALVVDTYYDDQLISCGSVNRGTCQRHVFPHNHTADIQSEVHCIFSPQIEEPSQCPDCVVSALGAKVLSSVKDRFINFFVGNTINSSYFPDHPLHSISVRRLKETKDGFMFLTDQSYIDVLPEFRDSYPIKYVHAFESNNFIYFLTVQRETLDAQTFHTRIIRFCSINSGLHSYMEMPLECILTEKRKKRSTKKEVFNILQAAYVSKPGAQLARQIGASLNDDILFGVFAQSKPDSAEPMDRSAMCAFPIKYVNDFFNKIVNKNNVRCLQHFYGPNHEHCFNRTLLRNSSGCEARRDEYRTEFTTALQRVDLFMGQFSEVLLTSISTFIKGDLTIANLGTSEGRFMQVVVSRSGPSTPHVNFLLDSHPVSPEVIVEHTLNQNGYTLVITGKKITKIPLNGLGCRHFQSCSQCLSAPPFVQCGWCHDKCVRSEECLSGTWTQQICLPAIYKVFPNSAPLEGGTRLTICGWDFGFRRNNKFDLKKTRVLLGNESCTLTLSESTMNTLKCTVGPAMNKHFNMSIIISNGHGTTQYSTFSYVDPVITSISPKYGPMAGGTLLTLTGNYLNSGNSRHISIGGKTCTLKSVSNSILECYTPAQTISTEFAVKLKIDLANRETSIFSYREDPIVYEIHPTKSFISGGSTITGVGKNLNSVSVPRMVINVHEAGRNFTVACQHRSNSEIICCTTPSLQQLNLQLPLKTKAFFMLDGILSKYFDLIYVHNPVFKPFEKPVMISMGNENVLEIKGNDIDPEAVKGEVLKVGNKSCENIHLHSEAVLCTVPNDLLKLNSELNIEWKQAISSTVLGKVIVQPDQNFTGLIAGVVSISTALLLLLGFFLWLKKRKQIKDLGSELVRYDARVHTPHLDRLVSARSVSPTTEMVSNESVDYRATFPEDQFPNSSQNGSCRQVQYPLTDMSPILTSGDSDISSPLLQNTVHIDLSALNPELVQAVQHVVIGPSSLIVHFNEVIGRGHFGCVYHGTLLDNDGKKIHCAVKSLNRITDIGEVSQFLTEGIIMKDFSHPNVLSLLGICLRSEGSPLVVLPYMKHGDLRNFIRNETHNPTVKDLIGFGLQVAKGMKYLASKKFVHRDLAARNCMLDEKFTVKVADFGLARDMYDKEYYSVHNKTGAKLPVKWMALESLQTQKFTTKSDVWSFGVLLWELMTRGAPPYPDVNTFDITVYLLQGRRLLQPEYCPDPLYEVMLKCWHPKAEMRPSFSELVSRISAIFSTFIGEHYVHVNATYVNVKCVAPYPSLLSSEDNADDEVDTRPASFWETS
SEMA-PSI-IPT 1-2 (MET ECD lacking IPT domains 3 and 4): residues 25-741 of P08581
SEMA-PSI (MET ECD lacking IPT domains 1-4): residues 25-562 of P08581
isolated SEMA domain of human MET: residues 27-515 of P08581

Tests used:
Test in all cases: ELISA, MET deletion mutant in solid phase
[1] = target: isolated SEMA domain of human MET (human) (UniProt P08581)
[2] = target: SEMA-PSI (MET ECD lacking IPT domains 1-4) (human) (UniProt P08581)
[3] = target: SEMA-PSI-IPT 1-2 (MET ECD lacking IPT domains 3 and 4) (human) (UniProt P08581)

Row | binding [1] | binding [2] | binding [3] | Binder
1 | binds | binds | binds | 71D6 chimeric llama-human IgG1 mAb (antibody, V domains shown, llama VH on human IgG1 CH1-CH2-CH3, llama VL on human lambda CL) VH: ELQLVESGGGLVQPGGSLRLSCAASGFTFSSYGMSWVRQAPGKGLEWVSAINSYGGSTSYADSVKGRFTISRDNAKNTLYLQMNSLKPEDTAVYYCAKEVRADLSRYNDYESYDYWGQGTQVTVSS VL: QPVLNQPSALSVTLGQTAKITCQGGSLGARYAHWYQQKPGQAPVLVIYDDDSRPSGIPERFSGSSSGGTATLTISGAQAEDEGDYYCQSADSSGSVFGGGTHLTVL
2 | binds | binds | binds | 71C3 chimeric llama-human IgG1 mAb (antibody, V domains shown, llama VH on human IgG1 CH1-CH2-CH3, llama VL on human lambda CL) VH: QLQLVESGGGLVQPGGSLRLSCAASGFTFSSHAMSWVRQAPGKGLEWVSAINSGGGSTSYADSVKGRFTISRDNAKNTLYLQMNSLKPEDTAVYYCAKELRFDLARYTDYEAWDYWGQGTQVTVSS VL: SYELTQPSALSVTLGQTAKITCQGGSLGSSYAHWYQQKPGQAPVLVIYDDDSRPSGIPERFSGSSSGGTATLTISGAQAEDEGDYYCQSADSSGNAAVFGGGTHLTVL
3 | binds | binds | binds | 71D4 chimeric llama-human IgG1 mAb (antibody, V domains shown, llama VH on human IgG1 CH1-CH2-CH3, llama VL on human lambda CL) VH: ELQLVESGGGLVQPGGSLRLSCAASGFTFSGYGMSWVRQAPGKGLEWVSDINSGGGSTSYADSVKGRFTISRDNAKNTLYLQMNSLKPEDTAVYYCAKDMRLYLARYNDYEAWDYWGQGTQVTVSS VL: SSALTQPSALSVTLGQTAKITCQGGSLGSSYAHWYQQKPGQAPVLVIYDDDSRPSGIPERFSGSSSGGTATLTISGAQAEDEGDYYCQSADSSGNAAVFGGGTHLTVL
4 | binds | binds | binds | 71A3 chimeric llama-human IgG1 mAb (antibody, V domains shown, llama VH on human IgG1 CH1-CH2-CH3, llama VL on human lambda CL) VH: EVQLVESGGGLVQPGGSLRLSCAASGFSFKDYDITWVRQAPGKGLEWVSTITSRSGSTSYVDSVKGRFTISGDNAKNTLYLQMNSLKPEDTAVYYCAKVYATTWDVGPLGYGMDYWGKGTLVTVSS VL: SYELTQPSALSVTLGQTAKITCQGGSLGSSYAHWYQQKPGQAPVLVIYDDDSRPSGIPERFSGSSSGGTATLTISGAQAEDEGDYYCQSADSSGNAAVFGGGTHLTVL
5 |  | binds | binds | 71G12 chimeric llama-human IgG1 mAb (antibody, V domains shown, llama VH on human IgG1 CH1-CH2-CH3, llama VL on human kappa CL) VH: QVQLQESGGDLVQPGGSLRVSCVVSGFTFSRYYMSWVRQAPGKGLEWVSSIDSYGYSTYYTDSVKGRFTISRDNAKNTLYLQMNSLKPEDTALYYCARAKTTWSYDYWGQGTQVTVSS VL: EIVLTQSPSSVTASVGGKVTINCKSSQSVFIASNQKTYLNWYQQRPGQSPRLVISYASTRESGIPDRFSGSGSTTDFTLTISSVQPEDAAVYYCQQAYSHPTFGQGTKVELK
6 |  | binds | binds | 76H10 chimeric llama-human IgG1 mAb (antibody, V domains shown, llama VH on human IgG1 CH1-CH2-CH3, llama VL on human lambda CL) VH: QLQLVESGGGLVQPGGSLRVSCTASGFTFNTYYMTWVRQAPGKGLEWVSDINSGGGTYYADSVKGRFTISRDNAKNTLYLQMNSLKPEDTALYYCVRVRIWPVGYDYWGQGTQVTVSS VL: QAVVTQEPSLSVSPGGTVTLTCGLSSGSVTTSNYPGWFQQTPGQAPRTLIYNTNNRHSGVPSRFSGSISGNKAALTITGAQPEDEADYYCSLYTGSYTTVFGGGTHLTVL
7 | binds | binds | binds | 74C8 chimeric llama-human IgG1 mAb (antibody, V domains shown, llama VH on human IgG1 CH1-CH2-CH3, llama VL on human lambda CL) VH: EVQLVESGGGLVQPGGSLRLSCAASGFTFRNYHMSWVRQVPGKGFEWISDINSAGGSTYYADSVKGRFTISRDNAKNTLYLEMNSLKPEDTALYYCARVNVWGVNYWGKGTLVSVSS VL: QTVVTQEPSLSVSPGGTVTLTCGLSSGSVTTSNYPGWFQQTPGQAPRTLIYNTNSRHSGVPSRFSGSISGNKAALTITGAQPEDEADYYCSLYPGSYTNVFGGGTHLTVL
8 |  | binds | binds | 76G7 chimeric llama-human IgG1 mAb (antibody, V domains shown, llama VH on human IgG1 CH1-CH2-CH3, llama VL on human lambda CL) VH: QVQLVESGGNLVQPGGSLRLSCAASGFTFSNYYMSWVRQAPGKGLEWVSDIYSDGSTTWYSDSVKGRFTISRDNAKNTLSLQMNSLKSEDTAVYYCARVKIYPGGYDAWGQGTQVTVSS VL: QAGLTQPPSVSGSPGKTVTISCAGNSSDVGYGNYVSWYQQFPGMAPKLLIYLVNKRASGITDRFSGSKSGNTASLTISGLQSEDEADYYCASYTGSNNIVFGGGTHLTVL
9 |  | binds | binds | 71G3 chimeric llama-human IgG1 mAb (antibody, V domains shown, llama VH on human IgG1 CH1-CH2-CH3, llama VL on human lambda CL) VH: QVQLVESGGGLVQPGGSLRVSCAASGFTFSTYYMSWVRQAPGKGLEWVSDIRTDGGTYYADSVKGRFTMSRDNAKNTLYLQMNSLKPEDTALYYCARTRIFPSGYDYWGQGTQVTVSS VL: QAVVTQEPSLSVSPGGTVTLTCGLSSGSVTTSNYPGWFQQTPGQAPRTLIYNTNSRHSGVPSRFSGSISGNKAALTIMGAQPEDEADYYCSLYPGSTTVFGGGTHLTVL
10 | binds | binds | binds | 71G2 chimeric llama-human IgG1 mAb (antibody, V domains shown, llama VH on human IgG1 CH1-CH2-CH3, llama VL on human lambda CL) VH: EVQLQESGGGLVQPGGSLRLSCAASGFTFSIYDMSWVRQAPGKGLEWVSTINSDGSSTSYVDSVKGRFTISRDNAKNTLYLQMNSLKPEDTAVYYCAKVYGSTWDVGPMGYGMDYWGKGTLVTVSS VL: SSALTQPSALSVSLGQTARITCQGGSLGSSYAHWYQQKPGQAPVLVIYGDDSRPSGIPERFSGSSSGGTATLTISGAQAEDEDDYYCQSTDSSGNTVFGGGTRLTVL
11 | binds | binds | binds | 72F8 chimeric llama-human IgG1 mAb (antibody, V domains shown, llama VH on human IgG1 CH1-CH2-CH3, llama VL on human lambda CL) VH: ELQLVESGGGLVQPGGSLRLSCAASGFTFSNYVMSWVRQAPGKGLEWVSDTNSGGSTSYADSVKGRFTISRDNAKNTLYLQMNSLKPEDTALYYCARSFFYGMNYWGKGTQVTVSS VL: QSALTQPPSLSASPGSSVRLTCTLSSGNNIGSYDISWYQQKAGSPPRYLLNYYTDSRKHQDSGVPSRFSGSKDASANAGLLLISGLQPEDEADYYCSAYKSGSYRWVFGGGTHVTVL
